Laboratory results: PubChem BioAssay AID1259289 (Sanger Institute, 2017)
Here is an unselected part of 794 reagents. In the full data, 16 (2%) are marked active. 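Active marks cell loss from silencing alone; drug synergy shows only in the synergy scores, not the calls.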 A number with no mark means an inactive call. Not all columns of the deposit are shown. The record does not give: the amount of reagent, the time to read-out.

Purpose: 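Kinases that bowel cancer cells need to survive, with or without BYL719, cetuximab, trametinib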 (primary screen)
System: human LS513 colorectal cancer cells
Knock-down reagent: siRNA pool against human genes
Challenge: anchor drug BYL719 at 1 µM, cetuximab at 5 µg/ml or trametinib at 10 nM, or DMSO vehicle alone; exposure time not given
Measured: 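Cell survival as a fraction of the non-targeting pool, replicate means; robust z-score for silencing alone under DMSO; synergy score for each of BYL719, cetuximab and trametinib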
Reading the numbers: robust z-score, siRNA alone (DMSO): higher = more viable cells; strongly negative means essential
Active means: 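a gene counts as active if its DMSO-only robust z-score falls under -3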
Meaning of the calls: active = essential (knock-down alone); inactive = not essential

With IRAK1 (interleukin 1 receptor associated kinase 1) [SID56478862], what does the deposit list?
robust z-score, siRNA alone (DMSO): 0.561

For PFKFB3 (6-phosphofructo-2-kinase/fructose-2,6-biphosphatase 3) [SID135621247], what does the deposit list?
robust z-score, siRNA alone (DMSO): -1.23

Which result is listed for PNKP (polynucleotide kinase 3'-phosphatase) [SID56479144]?
robust z-score, siRNA alone (DMSO): -0.312

For RAD21 (RAD21 cohesin complex component) [SID134311994], how do the results read?
robust z-score, siRNA alone (DMSO): 0.561

For CHKB (choline kinase beta) [SID56479083], what was measured?
robust z-score, siRNA alone (DMSO): 0.561

How did the screen score SBK1 (SH3 domain binding kinase 1) [SID152154198]?
robust z-score, siRNA alone (DMSO): 0.561

What did the screen give for PEAK1 (pseudopodium enriched atypical kinase 1) [SID152152075]?
robust z-score, siRNA alone (DMSO): -0.552

With LTK (leukocyte receptor tyrosine kinase) [SID135620624], how do the results read?
robust z-score, siRNA alone (DMSO): 0.561

Which result is listed for SRP72 (signal recognition particle 72) [SID135623816]?
robust z-score, siRNA alone (DMSO): -2.31

What is on record for PTEN (phosphatase and tensin homolog) [SID152153158]?
robust z-score, siRNA alone (DMSO): 0.561

2 of these entries in another layout:
CHKB (choline kinase beta) [SID56479083]
- robust z-score, siRNA alone (DMSO): 0.561

SBK1 (SH3 domain binding kinase 1) [SID152154198]
- robust z-score, siRNA alone (DMSO): 0.561

The list goes on.
For STKLD1 (serine/threonine kinase like domain containing 1) [SID152151495], what was measured?
robust z-score, siRNA alone (DMSO): -0.756

What is on record for CDK15 (cyclin dependent kinase 15) [SID56478852]?
robust z-score, siRNA alone (DMSO): 0.561

With CHEK1 (checkpoint kinase 1) [SID152148697], how do the results read?
robust z-score, siRNA alone (DMSO): -2.88

For PRKCQ (protein kinase C theta) [SID56478674], what does the deposit list?
robust z-score, siRNA alone (DMSO): -0.0627

What is on record for PSTK (phosphoseryl-tRNA kinase) [SID134320501]?
robust z-score, siRNA alone (DMSO): -0.105

Which result is listed for MINK1 (misshapen like kinase 1) [SID152155809]?
robust z-score, siRNA alone (DMSO): -1.42

How did the screen score CLSPN (claspin) [SID134310856]?
robust z-score, siRNA alone (DMSO): -2.32

With ACVR1B (activin A receptor type 1B) [SID56478918], what was measured?
robust z-score, siRNA alone (DMSO): 0.561

Which result is listed for PRKG1 (protein kinase cGMP-dependent 1) [SID152152064]?
robust z-score, siRNA alone (DMSO): 0.561

With PDK3 (pyruvate dehydrogenase kinase 3) [SID152151041], how do the results read?
robust z-score, siRNA alone (DMSO): 0.388

How did the screen score TTBK2 (tau tubulin kinase 2) [SID152155925]?
robust z-score, siRNA alone (DMSO): -1.47

What did the screen give for PIK3R5 (phosphoinositide-3-kinase regulatory subunit 5) [SID152147687]?
robust z-score, siRNA alone (DMSO): 0.489

What did the screen give for LMTK3 (lemur tail kinase 3) [SID152150242]?
robust z-score, siRNA alone (DMSO): 0.561

With ATRX (ATRX chromatin remodeler) [SID152156576], how do the results read?
robust z-score, siRNA alone (DMSO): 0.561

For YES1 (YES proto-oncogene 1, Src family tyrosine kinase) [SID152156078], how do the results read?
robust z-score, siRNA alone (DMSO): 0.561

With NRBP1 (nuclear receptor binding protein 1) [SID135620974], what does the deposit list?
robust z-score, siRNA alone (DMSO): -1.04

For TLK1 (tousled like kinase 1) [SID56478782], what was measured?
robust z-score, siRNA alone (DMSO): -1.46

With EPHA4 (EPH receptor A4) [SID152148822], how do the results read?
robust z-score, siRNA alone (DMSO): -0.187
